Molecular target: T1, CD27 (human, UniProt P26842 20-260)
T1 construct: whole, on cells
T1 sequence (looked up): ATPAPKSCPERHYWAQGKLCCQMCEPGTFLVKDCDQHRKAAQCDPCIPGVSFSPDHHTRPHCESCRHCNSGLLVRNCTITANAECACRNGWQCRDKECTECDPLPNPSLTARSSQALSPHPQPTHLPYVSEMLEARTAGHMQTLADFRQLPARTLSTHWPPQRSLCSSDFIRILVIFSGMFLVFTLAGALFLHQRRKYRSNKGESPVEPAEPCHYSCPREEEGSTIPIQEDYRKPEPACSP
Assay: labeled CAR T cells screened on HEK293 cells expressing 5,647 human plasma membrane proteins (Retrogenix)
Experimental: HEK293 cells were transfected to express 5,647 human plasma membrane proteins. This allowed for screening against these human proteins for reactivity with antibody-based reagents (screening was performed by a third party, Retrogenix™). Untransduced human T cells and T cells from the same donor that expressed Hu20-CD8BBZ were used. The Hu20-CD8BBZ T cells were labeled and then used to screen the 5,647 human plasma membrane proteins.

B1: Hu20-CD8BBZ (other)
chain: DIVMTQTPHSSPVTLGQPASISCRSSQSLVSRDGNTYLSWLQQRPGQPPRLLIYKISNRFSGVPNRFSGSGAGTDFTLKISRVKAEDVGVYYCMQATQFPLTFGQGTRLEIKGGGGSGGGGSGGGGSEVQLVQSGAEVKKPGESLKISCKGSGYSFTSYWIGWVRQMPGKGLEWMGIIYPGDSDTRYSPSFQGQVTISADKSISTAYLQWSSLKASDTAMYYCARQGDFWSGYGGMDVWGQGTTVTVSSFVPVFLPAKPTTTPAPRPPTPAPTIASQPLSLRPEACRPAAGGAVHTRGLDFACDIYIWAPLAGTCGVLLLSLVITLYCNHRNKRGRKKLLYIFKQPFMRPVQTTQEEDGCSCRFPEEEEGGCELRVKFSRSADAPAYQQGQNQLYNELNLGRREEYDVLDKRRGRDPEMGGKPRRKNPQEGLYNELQKDKMAEAYSEIGMKGERRRGKGHDGLYQGLSTATKDTYDALHMQALPPR
notes: CAR on transduced human T cells; also called 2.1.2-CD8BBZ; 2.1.2BB
  binding result: binds

— US20210363245A1 (US Dept. of Health and Human Services, published 2021)
